Assay results: US8293219B2, “Use of long carbon chain quaternary ammonium salt phosphoric acid ester as conditioner for hair” (Nanjing Huashi Chemical Co., Ltd, priority 2007, dated 2012)

assay: Carding force test (Instron 3343 biomechanics tester); details: hair immersed in 10% sample formula at room temperature for 20 minutes, rinsed, air dried; compared with contrast sample; sample content as printed (1% for single esters)
Description: Some hair of the oriental having a length of about 15 cm was taken, cleaned thoroughly with 1% SLS, rinsed with water for 2 minutes; the remaining water on the hair was then removed and the hair was immersed in a 10% sample formula at room temperature for 20 minutes. Then, the hair was taken out and rinsed with water for 2 minutes; after being dried in the air, the hair was tested by using Instron 3343 biomechanics tester and compared with the contrast sample. For the test results, see Table 1.

In the case of “mono-Palmitamidopropyl PG-dimonium chloride phosphate [PFA]”, the “Reduction of carding force” value was 5.8.

Going from “mono-Behenamidopropyl PG-dimonium chloride phosphate [BFA]” to “mono-Stearamidopropyl PG-dimonium chloride phosphate [SFA]”, the “Reduction of carding force” value falls from 14.0 to 7.0.

In the case of “mono-Isostearamidopropyl PG-dimonium chloride phosphate [ISFA]”, the “Reduction of carding force” value was 11.0.
